# Reference: the supplement of paper PMC10849652
# Sequences of proteins named here, by UniProt entry; tags and fusion partners are left off. A change or cut given only in a name is not applied to a line headed by its entry.
# UniProt P03886, whole entry, looked up: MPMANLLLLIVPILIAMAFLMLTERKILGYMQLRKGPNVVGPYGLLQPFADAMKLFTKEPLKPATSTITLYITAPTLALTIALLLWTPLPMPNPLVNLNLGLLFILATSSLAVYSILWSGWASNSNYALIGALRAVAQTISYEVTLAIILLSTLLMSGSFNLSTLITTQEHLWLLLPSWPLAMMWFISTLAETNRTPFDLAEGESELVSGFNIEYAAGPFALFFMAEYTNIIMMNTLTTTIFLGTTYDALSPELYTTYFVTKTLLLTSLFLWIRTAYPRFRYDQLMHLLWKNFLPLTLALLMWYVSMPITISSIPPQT
# UniProt Q8IUG5: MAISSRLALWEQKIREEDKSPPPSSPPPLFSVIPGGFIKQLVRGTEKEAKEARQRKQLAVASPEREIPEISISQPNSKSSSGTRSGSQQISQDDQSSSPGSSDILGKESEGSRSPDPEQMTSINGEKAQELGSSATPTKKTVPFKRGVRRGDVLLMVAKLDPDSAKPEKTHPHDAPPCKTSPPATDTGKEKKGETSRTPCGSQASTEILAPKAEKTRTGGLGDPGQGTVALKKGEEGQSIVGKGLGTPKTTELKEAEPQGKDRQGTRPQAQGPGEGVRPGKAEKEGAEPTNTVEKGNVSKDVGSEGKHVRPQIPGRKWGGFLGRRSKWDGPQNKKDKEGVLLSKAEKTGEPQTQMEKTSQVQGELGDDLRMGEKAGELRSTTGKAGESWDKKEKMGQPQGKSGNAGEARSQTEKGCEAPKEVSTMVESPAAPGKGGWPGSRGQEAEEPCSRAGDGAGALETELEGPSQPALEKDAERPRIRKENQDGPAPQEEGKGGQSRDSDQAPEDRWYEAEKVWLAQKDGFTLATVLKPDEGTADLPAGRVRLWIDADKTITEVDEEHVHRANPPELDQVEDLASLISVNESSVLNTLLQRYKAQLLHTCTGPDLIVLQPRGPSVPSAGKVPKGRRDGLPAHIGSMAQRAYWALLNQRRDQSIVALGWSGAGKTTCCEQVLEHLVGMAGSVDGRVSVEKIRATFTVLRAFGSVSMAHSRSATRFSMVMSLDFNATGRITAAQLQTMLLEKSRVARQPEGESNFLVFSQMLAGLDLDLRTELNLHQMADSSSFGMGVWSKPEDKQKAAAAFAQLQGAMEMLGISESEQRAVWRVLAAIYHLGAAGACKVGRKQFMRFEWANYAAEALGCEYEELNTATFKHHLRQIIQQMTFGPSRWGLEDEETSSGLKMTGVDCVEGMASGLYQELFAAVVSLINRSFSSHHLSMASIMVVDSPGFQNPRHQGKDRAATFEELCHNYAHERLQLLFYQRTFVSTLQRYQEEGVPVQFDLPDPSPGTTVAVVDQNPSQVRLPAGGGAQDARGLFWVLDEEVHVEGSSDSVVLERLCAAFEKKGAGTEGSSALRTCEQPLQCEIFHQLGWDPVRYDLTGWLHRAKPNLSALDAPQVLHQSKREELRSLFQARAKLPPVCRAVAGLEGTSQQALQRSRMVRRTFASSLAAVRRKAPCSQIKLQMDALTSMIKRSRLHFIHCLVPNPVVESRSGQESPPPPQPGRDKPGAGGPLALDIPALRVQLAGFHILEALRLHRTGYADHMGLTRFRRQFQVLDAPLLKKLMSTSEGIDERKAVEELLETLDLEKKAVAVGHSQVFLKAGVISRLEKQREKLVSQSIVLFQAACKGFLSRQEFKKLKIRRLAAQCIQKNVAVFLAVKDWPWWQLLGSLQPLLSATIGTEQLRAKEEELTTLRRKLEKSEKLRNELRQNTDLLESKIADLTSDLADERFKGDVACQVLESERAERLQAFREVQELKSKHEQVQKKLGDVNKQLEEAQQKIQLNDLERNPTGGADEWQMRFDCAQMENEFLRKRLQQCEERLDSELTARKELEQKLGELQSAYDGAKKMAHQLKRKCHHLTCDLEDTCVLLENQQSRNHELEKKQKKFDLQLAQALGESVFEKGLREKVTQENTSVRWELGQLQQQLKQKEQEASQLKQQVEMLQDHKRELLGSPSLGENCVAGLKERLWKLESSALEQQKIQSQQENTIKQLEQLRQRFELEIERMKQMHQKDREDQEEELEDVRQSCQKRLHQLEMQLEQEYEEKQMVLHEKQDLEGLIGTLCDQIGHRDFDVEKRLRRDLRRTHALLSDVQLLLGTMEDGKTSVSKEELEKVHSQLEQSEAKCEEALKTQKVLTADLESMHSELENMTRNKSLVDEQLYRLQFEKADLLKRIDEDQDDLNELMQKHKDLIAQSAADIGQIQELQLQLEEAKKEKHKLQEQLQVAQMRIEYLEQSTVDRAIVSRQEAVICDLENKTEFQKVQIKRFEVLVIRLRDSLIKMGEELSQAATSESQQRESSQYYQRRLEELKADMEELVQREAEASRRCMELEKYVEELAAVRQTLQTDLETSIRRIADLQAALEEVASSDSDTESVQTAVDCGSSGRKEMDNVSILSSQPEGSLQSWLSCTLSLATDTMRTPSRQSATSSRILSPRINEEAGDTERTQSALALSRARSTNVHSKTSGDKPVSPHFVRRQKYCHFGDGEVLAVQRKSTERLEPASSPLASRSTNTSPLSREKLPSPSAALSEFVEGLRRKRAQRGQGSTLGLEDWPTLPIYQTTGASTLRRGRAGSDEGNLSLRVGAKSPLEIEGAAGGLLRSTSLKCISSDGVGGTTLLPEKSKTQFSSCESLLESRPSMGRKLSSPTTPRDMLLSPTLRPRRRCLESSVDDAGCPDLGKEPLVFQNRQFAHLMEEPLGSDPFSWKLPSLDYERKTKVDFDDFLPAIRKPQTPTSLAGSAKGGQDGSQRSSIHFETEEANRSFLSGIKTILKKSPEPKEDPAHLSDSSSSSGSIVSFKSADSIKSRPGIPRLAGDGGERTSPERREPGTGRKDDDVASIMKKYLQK
# MTHFD1, A0A384N5Y3, UniProt A0A384N5Y3, whole entry, looked up: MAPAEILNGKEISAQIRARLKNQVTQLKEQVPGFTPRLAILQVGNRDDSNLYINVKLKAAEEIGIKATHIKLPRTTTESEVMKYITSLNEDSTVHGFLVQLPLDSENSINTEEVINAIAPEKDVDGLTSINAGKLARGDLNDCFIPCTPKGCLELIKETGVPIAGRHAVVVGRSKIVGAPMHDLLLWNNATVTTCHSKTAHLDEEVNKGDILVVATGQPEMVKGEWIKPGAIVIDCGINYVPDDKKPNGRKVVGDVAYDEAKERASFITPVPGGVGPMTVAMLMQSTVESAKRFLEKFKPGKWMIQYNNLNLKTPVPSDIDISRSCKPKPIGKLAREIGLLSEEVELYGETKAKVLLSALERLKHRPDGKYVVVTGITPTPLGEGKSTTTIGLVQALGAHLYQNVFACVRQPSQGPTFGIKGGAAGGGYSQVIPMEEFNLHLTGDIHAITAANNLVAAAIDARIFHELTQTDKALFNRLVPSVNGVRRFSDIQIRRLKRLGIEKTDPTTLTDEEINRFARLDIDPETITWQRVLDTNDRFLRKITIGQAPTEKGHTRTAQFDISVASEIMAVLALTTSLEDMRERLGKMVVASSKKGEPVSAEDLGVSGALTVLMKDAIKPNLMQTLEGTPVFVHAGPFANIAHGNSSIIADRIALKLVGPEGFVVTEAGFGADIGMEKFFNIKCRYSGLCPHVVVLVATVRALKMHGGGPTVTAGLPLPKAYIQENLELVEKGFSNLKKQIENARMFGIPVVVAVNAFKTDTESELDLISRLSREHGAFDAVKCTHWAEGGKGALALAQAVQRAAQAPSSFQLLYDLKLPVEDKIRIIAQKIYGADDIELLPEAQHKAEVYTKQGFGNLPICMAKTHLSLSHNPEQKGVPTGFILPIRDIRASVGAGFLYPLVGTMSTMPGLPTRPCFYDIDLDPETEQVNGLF
# UniProt P11586, whole entry, looked up: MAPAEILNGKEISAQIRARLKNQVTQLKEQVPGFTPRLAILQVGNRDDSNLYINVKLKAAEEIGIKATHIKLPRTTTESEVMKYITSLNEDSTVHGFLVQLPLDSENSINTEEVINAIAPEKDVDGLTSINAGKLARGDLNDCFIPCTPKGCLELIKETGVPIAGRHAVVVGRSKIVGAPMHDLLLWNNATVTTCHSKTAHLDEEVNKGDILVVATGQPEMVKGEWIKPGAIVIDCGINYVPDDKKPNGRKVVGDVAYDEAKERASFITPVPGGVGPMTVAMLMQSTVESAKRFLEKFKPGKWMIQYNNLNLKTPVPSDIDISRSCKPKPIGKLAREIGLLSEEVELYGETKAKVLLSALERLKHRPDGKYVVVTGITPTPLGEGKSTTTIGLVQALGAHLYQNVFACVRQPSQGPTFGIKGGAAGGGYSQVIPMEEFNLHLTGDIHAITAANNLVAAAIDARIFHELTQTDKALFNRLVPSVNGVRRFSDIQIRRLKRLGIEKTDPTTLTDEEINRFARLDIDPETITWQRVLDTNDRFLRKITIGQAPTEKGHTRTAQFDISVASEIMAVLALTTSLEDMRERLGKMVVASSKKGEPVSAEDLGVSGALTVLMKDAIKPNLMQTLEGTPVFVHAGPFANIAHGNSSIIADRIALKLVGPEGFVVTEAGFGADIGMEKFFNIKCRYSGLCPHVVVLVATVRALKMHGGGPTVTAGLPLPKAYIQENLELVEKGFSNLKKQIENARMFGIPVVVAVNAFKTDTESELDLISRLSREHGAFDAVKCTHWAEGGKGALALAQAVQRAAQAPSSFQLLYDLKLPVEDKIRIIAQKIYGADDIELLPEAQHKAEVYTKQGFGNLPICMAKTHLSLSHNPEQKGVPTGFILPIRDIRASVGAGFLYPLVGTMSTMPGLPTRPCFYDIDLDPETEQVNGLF
# UniProt Q9BTC8: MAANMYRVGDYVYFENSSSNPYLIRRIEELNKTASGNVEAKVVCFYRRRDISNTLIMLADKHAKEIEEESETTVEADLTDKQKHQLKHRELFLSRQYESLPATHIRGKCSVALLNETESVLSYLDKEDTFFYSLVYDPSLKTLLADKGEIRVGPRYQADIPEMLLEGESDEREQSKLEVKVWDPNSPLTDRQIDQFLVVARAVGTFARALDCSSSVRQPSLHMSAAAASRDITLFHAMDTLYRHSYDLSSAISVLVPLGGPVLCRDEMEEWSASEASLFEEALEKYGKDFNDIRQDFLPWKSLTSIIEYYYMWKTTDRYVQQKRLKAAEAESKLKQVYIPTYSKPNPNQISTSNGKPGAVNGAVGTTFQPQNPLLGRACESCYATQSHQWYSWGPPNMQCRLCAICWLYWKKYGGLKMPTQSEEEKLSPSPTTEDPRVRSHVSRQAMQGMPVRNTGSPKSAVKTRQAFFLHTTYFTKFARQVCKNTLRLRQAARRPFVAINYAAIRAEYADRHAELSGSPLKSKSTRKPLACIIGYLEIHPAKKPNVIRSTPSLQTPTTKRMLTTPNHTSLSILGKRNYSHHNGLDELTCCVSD
# UniProt Q99836, whole entry, looked up: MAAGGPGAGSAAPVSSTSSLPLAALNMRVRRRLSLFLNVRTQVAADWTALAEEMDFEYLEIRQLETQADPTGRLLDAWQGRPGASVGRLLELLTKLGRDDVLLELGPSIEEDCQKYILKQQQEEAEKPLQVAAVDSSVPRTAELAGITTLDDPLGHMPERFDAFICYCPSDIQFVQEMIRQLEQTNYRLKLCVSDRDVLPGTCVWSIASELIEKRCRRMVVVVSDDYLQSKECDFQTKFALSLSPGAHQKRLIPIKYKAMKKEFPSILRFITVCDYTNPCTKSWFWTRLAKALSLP
# UniProt Q96DP5: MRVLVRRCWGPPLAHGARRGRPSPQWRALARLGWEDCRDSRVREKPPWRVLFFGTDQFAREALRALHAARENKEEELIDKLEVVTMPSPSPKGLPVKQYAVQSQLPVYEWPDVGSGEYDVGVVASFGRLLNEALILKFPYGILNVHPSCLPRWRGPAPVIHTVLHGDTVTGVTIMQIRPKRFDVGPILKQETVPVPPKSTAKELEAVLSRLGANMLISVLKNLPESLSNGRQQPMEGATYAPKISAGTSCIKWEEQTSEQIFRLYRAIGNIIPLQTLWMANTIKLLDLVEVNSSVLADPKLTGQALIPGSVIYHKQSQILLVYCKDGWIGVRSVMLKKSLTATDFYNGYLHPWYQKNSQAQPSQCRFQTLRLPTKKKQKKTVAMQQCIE
# UniProt Q7Z6M4: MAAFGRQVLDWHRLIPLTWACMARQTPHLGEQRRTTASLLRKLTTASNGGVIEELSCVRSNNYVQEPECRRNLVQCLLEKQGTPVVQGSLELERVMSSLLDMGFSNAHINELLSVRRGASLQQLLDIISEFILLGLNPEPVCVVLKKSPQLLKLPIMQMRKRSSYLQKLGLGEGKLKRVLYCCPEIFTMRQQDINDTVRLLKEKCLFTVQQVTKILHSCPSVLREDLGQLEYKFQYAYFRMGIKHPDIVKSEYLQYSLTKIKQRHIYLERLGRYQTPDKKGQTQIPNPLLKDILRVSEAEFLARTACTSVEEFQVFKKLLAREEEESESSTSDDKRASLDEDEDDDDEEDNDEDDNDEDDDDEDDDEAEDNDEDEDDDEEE
# Some of the results follow.
# Compound: CCCCN(Cc1ccc(C(=O)NO)cc1)C(=O)Nc1ccccc1 [Nexturastat A]
# Test: log2 fold change, soluble protein after heating vs DMSO (PISA); higher = thermal stabilisation; K562 cells, 10 uM, 30 min; active = over 0.2 and 3.5 SD of the protein, either way, in both replicates (recomputed)
# How it was run: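 For each measurement, 10 μM compound was applied for 30 min to K562 cells at 2×10^6 cells/mL. Aliquots were heated for 3 min across 48°C-58°C, pooled, and extracted in PBS with 0.5% NP-40 at 4°C; the supernatant after 21,000xg for 90 min was soluble protein. This was quantified by TMTpro 16plex LC-MS/MS with channel sums equalised, and thermal stability was reported relative to control samples from duplicates, on a log2 fold-change scale.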
row,Target,log2 fold change
1,MXRA8 isoform 2 (UniProt Q9BRK3),inactive: -0.13
2,MUC7 (UniProt Q8TAX7),inactive: 0.293
3,MT-ND1 (UniProt P03886),inactive: 0.021
4,MRPS15 (UniProt P82914),inactive: 0.058
5,MTCH2 (UniProt E9PIE4),inactive: -0.115
6,MYO9A isoform 4 (UniProt B2RTY4),inactive: 0.17
7,MYO18B isoform 3 (UniProt Q8IUG5),inactive: -0.222
8,MRPS14 (UniProt O60783),inactive: 0.129
9,"MTHFD1, A0A384N5Y3",inactive: 0.013
10,MTHFD1 (UniProt P11586),inactive: -0.046
11,MRPS18C (UniProt Q9Y3D5),inactive: 0.07
12,MTA3 (UniProt Q9BTC8),inactive: 0.311
13,MTMR10 (UniProt Q9NXD2),inactive: -0.358
14,MTMR14 (UniProt Q8NCE2),inactive: 0.028
15,MYD88 isoform 6 (UniProt Q99836),inactive: 0.176
16,MTFR1L (UniProt Q9H019),inactive: -0.027
17,MRPS16 (UniProt Q9Y3D3),inactive: 0.124
18,MTFMT (UniProt Q96DP5),inactive: -0.217
19,MRPS21 (UniProt P82921),inactive: 0.093
20,MTMR1 (UniProt Q13613),inactive: 0.121
21,MRPS26 (UniProt Q9BYN8),inactive: 0.075
22,MTERF4 (UniProt Q7Z6M4),inactive: -0.197
23,MTO1 isoform 6 (UniProt Q9Y2Z2),inactive: 0.142

# Excerpt: nos. 10–11
row,Target,log2 fold change
10,MTHFD1 (UniProt P11586),inactive: -0.046
11,MRPS18C (UniProt Q9Y3D5),inactive: 0.07
